Test results published in the supplement of paper PMC10849652.
This is one part of the list.

Chains of the proteins cited; added tags and fusions are not shown. Lines headed by an entry give the natural chain unless they say otherwise; changes in a name come on top.
UniProt Q9NX14, whole entry, looked up: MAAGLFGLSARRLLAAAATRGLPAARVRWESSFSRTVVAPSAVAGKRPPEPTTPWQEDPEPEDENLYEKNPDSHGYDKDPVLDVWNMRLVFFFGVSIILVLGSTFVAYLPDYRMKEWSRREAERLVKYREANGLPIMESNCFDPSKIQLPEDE
UniProt P08651, whole entry, looked up: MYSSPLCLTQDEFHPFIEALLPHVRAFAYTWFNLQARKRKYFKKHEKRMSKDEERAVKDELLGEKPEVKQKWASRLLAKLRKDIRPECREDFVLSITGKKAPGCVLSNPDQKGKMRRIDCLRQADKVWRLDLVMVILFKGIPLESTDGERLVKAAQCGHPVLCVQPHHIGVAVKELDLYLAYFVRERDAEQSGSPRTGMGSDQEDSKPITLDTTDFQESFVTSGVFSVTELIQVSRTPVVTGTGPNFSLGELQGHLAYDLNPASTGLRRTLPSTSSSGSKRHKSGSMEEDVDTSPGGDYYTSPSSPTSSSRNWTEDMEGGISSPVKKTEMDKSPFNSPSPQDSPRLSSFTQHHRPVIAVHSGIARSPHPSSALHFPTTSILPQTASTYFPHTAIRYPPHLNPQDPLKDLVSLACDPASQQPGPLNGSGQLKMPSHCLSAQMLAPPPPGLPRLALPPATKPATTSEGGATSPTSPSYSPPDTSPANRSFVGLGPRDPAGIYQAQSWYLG
UniProt Q9P0J0, whole entry, looked up: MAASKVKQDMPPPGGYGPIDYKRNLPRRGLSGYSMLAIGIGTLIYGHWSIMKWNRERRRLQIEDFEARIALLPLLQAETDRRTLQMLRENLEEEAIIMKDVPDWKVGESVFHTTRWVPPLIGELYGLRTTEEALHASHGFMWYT
UniProt Q8N183: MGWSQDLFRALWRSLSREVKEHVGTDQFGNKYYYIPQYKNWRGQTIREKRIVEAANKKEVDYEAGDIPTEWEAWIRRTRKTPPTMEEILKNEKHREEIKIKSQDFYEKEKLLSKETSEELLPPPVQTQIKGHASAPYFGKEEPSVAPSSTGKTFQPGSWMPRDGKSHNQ
UniProt O95169, whole entry, looked up: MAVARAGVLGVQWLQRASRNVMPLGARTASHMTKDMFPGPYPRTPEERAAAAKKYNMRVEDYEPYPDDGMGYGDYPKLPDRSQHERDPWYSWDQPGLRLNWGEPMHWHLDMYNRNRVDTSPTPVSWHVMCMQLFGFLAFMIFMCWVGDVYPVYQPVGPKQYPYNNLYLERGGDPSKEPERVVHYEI
UniProt Q13952: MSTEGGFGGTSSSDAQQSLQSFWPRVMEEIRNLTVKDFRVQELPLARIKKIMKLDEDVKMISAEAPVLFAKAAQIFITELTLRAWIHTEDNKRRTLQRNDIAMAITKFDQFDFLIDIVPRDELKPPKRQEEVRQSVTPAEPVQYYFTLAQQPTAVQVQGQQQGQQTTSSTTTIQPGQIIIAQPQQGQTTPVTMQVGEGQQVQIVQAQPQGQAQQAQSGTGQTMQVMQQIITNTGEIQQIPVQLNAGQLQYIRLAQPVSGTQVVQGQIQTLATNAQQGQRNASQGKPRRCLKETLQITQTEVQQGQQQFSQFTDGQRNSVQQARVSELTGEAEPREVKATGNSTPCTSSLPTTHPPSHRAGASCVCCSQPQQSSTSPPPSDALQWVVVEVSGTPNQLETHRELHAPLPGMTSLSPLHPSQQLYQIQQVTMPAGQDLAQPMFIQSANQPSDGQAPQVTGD
UniProt Q9Y375: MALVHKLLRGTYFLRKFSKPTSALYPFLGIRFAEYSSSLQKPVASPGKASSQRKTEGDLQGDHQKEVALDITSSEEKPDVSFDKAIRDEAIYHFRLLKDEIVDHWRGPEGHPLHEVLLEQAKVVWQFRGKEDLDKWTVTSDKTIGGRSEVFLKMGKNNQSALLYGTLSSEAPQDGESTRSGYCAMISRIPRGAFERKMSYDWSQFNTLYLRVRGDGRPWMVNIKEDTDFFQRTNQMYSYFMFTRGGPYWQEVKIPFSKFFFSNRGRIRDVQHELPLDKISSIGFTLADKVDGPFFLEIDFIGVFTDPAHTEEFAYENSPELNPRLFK
UniProt O00483, whole entry, looked up: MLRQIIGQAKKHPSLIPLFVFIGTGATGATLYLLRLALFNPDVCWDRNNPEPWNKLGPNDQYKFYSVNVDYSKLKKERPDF
UniProt O75489, whole entry, looked up: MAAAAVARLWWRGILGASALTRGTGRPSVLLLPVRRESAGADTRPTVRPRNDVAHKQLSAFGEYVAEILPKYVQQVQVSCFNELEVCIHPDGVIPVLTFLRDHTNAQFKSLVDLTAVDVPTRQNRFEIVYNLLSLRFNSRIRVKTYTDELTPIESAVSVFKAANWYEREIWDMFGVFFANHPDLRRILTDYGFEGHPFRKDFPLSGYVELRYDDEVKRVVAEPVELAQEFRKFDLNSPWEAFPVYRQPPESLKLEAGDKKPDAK
UniProt O95299, whole entry, looked up: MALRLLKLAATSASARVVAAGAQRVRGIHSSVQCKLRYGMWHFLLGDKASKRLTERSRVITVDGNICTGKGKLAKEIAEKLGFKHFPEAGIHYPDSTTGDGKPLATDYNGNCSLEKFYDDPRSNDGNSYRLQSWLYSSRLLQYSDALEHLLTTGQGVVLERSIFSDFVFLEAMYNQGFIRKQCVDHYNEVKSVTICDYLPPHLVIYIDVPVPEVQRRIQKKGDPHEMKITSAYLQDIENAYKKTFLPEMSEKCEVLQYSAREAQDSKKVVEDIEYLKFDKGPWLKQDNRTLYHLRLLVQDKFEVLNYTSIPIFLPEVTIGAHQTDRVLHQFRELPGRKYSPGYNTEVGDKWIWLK
UniProt Q8N8Q9: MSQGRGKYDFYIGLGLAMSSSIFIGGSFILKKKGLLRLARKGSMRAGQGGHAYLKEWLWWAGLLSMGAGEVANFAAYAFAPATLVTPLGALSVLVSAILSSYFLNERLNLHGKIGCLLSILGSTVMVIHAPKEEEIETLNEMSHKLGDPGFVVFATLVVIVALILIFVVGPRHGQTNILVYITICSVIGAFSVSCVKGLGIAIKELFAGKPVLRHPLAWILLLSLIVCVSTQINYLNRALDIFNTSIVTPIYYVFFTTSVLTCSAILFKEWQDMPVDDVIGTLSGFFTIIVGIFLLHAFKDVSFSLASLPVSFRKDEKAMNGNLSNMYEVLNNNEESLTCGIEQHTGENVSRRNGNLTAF
UniProt Q9UFN0: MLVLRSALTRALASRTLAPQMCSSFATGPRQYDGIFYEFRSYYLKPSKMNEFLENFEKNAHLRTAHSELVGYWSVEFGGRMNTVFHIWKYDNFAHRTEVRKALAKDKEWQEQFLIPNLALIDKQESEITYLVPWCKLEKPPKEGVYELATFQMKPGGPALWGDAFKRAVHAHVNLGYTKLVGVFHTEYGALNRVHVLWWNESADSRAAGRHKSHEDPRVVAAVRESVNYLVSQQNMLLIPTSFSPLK
UniProt P51956: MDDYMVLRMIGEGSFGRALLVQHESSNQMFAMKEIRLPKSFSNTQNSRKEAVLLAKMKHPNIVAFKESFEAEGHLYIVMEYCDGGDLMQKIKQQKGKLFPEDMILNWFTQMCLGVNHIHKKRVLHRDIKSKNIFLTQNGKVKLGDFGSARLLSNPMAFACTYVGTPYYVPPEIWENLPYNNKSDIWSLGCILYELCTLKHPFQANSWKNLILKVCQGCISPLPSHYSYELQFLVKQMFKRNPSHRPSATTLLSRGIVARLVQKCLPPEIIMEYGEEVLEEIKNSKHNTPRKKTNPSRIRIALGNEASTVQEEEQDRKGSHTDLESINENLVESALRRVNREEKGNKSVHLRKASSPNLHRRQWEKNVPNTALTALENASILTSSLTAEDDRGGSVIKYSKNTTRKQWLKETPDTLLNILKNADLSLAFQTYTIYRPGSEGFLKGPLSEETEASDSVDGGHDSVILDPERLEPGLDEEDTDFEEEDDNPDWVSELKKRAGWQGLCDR
UniProt Q16621: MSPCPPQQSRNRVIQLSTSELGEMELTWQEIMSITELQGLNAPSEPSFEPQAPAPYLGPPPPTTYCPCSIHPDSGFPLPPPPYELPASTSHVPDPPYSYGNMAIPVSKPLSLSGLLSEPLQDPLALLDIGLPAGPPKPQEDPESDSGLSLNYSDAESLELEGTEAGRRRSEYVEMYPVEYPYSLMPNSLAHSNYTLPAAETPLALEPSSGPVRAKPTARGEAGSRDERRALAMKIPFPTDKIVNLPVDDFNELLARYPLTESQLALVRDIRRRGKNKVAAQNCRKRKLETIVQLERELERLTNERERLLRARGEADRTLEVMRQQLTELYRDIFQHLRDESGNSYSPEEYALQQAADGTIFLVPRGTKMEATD
UniProt Q12968: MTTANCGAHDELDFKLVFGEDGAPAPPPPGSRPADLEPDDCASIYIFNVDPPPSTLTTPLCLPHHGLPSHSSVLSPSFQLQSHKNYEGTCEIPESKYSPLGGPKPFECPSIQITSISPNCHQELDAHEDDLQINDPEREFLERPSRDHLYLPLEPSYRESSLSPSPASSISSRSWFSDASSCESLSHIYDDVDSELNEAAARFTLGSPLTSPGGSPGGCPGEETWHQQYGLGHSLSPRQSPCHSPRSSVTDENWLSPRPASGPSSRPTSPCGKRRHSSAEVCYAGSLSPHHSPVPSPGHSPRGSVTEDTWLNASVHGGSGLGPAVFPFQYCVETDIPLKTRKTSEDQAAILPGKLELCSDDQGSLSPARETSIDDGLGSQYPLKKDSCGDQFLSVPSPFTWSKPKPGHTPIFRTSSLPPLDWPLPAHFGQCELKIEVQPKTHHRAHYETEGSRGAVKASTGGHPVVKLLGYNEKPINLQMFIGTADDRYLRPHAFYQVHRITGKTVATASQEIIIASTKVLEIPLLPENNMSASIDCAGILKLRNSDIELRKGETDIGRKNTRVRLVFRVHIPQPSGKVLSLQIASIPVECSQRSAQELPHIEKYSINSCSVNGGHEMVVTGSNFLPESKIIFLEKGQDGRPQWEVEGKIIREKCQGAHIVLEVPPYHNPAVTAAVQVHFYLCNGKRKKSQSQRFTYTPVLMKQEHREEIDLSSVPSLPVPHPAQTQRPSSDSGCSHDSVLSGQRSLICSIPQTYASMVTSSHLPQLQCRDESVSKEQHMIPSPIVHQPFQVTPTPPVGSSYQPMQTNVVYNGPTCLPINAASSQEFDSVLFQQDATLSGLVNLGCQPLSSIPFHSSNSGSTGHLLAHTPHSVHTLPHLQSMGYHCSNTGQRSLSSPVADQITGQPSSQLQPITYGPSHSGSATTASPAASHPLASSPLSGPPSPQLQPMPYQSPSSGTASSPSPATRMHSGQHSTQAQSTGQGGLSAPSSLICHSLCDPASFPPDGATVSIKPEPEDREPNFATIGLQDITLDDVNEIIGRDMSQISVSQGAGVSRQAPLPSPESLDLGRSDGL
UniProt Q9UI09, whole entry, looked up: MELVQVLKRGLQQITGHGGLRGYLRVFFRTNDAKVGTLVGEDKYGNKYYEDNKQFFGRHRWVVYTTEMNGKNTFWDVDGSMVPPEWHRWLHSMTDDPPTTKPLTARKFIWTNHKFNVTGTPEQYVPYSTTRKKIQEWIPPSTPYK
UniProt P12036: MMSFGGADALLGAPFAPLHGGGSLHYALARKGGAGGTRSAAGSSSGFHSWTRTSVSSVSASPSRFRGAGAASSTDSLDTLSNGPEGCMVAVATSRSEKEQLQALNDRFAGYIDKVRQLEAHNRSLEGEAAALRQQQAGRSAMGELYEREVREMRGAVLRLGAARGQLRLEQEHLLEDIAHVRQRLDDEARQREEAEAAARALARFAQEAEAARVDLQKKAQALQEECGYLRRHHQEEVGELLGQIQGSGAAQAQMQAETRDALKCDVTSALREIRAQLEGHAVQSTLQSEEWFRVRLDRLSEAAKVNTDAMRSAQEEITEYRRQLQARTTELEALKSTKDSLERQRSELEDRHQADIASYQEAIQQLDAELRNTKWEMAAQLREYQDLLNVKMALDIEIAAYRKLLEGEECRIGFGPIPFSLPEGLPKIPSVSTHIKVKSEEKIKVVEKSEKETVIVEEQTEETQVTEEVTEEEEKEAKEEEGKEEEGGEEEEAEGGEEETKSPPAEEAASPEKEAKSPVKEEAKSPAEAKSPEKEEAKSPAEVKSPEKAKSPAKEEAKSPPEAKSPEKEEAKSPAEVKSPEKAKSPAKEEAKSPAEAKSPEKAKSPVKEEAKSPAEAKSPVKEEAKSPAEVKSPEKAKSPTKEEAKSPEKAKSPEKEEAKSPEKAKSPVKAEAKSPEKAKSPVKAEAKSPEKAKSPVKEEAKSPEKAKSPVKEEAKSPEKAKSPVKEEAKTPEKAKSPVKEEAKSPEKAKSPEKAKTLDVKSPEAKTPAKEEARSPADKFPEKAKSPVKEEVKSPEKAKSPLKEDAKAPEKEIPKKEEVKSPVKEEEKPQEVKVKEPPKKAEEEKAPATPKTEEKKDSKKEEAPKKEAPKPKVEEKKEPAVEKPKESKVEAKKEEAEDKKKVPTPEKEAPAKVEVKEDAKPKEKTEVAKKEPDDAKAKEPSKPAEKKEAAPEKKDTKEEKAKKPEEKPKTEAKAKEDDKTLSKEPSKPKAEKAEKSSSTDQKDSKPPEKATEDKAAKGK

Assays:
Experiment in all cases: log2 fold change, soluble protein after heating vs DMSO (PISA); higher = thermal stabilisation; K562 lysate, 10 uM; active = over 0.2 and 3.5 SD of the protein, either way, in both replicates (recomputed)
[1] = compound: NCC(=O)Nc1ccc(-n2nc(C(F)(F)F)cc2-c2ccc3c(ccc4ccccc43)c2)cc1
How it was run: (§1)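 Pellets of K562 cells were dounce-homogenised in PBS pH 7.4 with 1 mM MgCl2, and the crude extract was held at 1 mg/mL protein for a 30 min treatment with 10 μM compound. Aliquots were heated for 3 min over 48°C-58°C and pooled before NP-40 was added to 0.5% at 4°C. The supernatant from 21,000xg for 90 min was quantified by TMTpro 16plex LC-MS/MS with channel sums equalised. Values are reported from duplicates as log-two fold change in thermal stability relative to solvent controls.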

vorinostat = compound: O=C(CCCCCCC(=O)Nc1ccccc1)NO [vorinostat]
How it was run: as §1

silmitasertib = compound: O=C(O)c1ccc2c(c1)nc(Nc1cccc(Cl)c1)c1ccncc12 [silmitasertib]
How it was run: as §1

[2] = compound: O=C1NC(=O)C(c2cnc3ccccn23)=C1c1cn2c3c(cc(F)cc13)CN(C(=O)N1CCCCC1)CC2
How it was run: as §1

entospletinib = compound: c1cn2cc(-c3ccc4cn[nH]c4c3)nc(Nc3ccc(N4CCOCC4)cc3)c2n1 [entospletinib]
How it was run: as §1

Measured: log2 fold change

NDUFB11 isoform 2 (UniProt Q9NX14)
inactive: [1] -0.047 | vorinostat 0.165 | silmitasertib -0.019 | [2] 0.022 | entospletinib -0.1

NGLY1 (UniProt Q96IV0)
active: vorinostat -0.29
inactive: [1] -0.014 | silmitasertib 0.041 | [2] 0.018 | entospletinib 0.034

NFIC (UniProt P08651)
inactive: [1] 0.063 | vorinostat -0.083 | silmitasertib -0.026 | [2] -0.032 | entospletinib -0.025

NDUFA13 (UniProt Q9P0J0)
inactive: [1] -0.007 | vorinostat 0.087 | silmitasertib 0.013 | [2] -0.01 | entospletinib 0.023

NDUFAF2 (UniProt Q8N183)
inactive: [1] 0.037 | vorinostat 0.171 | silmitasertib -0.011 | [2] -0.03 | entospletinib 0.003

NKAP (UniProt Q8N5F7)
inactive: [1] 0.121 | vorinostat 0.058 | silmitasertib -0.02 | [2] -0.006 | entospletinib -0.02

NECTIN2 (UniProt Q92692)
inactive: [1] -0.007 | vorinostat 0.126 | silmitasertib 0.013 | [2] -0.031 | entospletinib 0.019

NDUFB8 (UniProt O95169)
inactive: [1] -0.066 | vorinostat 0.172 | silmitasertib -0.025 | [2] 0.018 | entospletinib -0.094

NFYC (UniProt Q13952)
inactive: [1] 0.045 | vorinostat 0.111 | silmitasertib -0.065 | [2] -0.026 | entospletinib -0.066

NEURL4 (UniProt Q96JN8)
inactive: [1] 0.025 | vorinostat 0.079 | silmitasertib 0.16 | [2] -0.316 | entospletinib -0.119

NDUFAF1 (UniProt Q9Y375)
inactive: [1] -0.016 | vorinostat 0.158 | silmitasertib 0.003 | [2] 0 | entospletinib 0.02

NF1 (UniProt P21359)
inactive: [1] 0.03 | silmitasertib 0.037 | [2] 0.01 | entospletinib 0.025
active: vorinostat -0.634

Pulled one by one from above, two records:
NFYC (UniProt Q13952)
inactive: [1] 0.045 | vorinostat 0.111 | silmitasertib -0.065 | [2] -0.026 | entospletinib -0.066

NF1 (UniProt P21359)
inactive: [1] 0.03 | silmitasertib 0.037 | [2] 0.01 | entospletinib 0.025
active: vorinostat -0.634

Later entries

NISCH (UniProt Q9Y2I1)
inactive: [1] -0.006 | vorinostat -0.127 | silmitasertib -0.024 | [2] -0.05 | entospletinib -0.035

NDUFA4 (UniProt O00483)
inactive: [1] -0.041 | vorinostat -0.017 | silmitasertib -0.004 | [2] 0.01 | entospletinib -0.029

NDUFS3 (UniProt O75489)
inactive: [1] 0.019 | vorinostat 0.088 | silmitasertib 0.019 | [2] 0.042 | entospletinib 0.057

NELFB isoform 2 (UniProt Q8WX92)
inactive: [1] 0.028 | vorinostat -0.109 | silmitasertib 0.001 | [2] -0.02 | entospletinib 0.038

NDUFA10 (UniProt O95299)
inactive: [1] -0.033 | vorinostat -0.099 | silmitasertib 0.096 | [2] -0.013 | entospletinib -0.022

NIPA2 (UniProt Q8N8Q9)
inactive: [1] -0.045 | vorinostat 0.128 | silmitasertib -0.114 | [2] -0.042 | entospletinib 0.114

NIPSNAP3A (UniProt Q9UFN0)
inactive: [1] 0.03 | vorinostat 0.136 | silmitasertib -0.061 | [2] 0.017 | entospletinib -0.021

NEK3 (UniProt P51956)
inactive: [1] -0.03 | vorinostat -0.045 | silmitasertib 0.042 | [2] 0.033 | entospletinib 0.04

NFE2 (UniProt Q16621)
inactive: [1] -0.017 | vorinostat 0.043 | silmitasertib -0.017 | [2] 0.038 | entospletinib -0.007

NFATC3 (UniProt Q12968)
inactive: [1] 0.031 | vorinostat -0.146 | silmitasertib -0.033 | [2] -0.006 | entospletinib 0.032

NDUFA12 (UniProt Q9UI09)
inactive: [1] -0.108 | vorinostat 0.081 | silmitasertib 0 | [2] 0.064 | entospletinib 0.016

NEFH (UniProt P12036)
inactive: [1] 0.024 | vorinostat 0.029 | silmitasertib -0.005 | [2] 0.014 | entospletinib 0.011
